From the supplement of paper PMC10849652
The other results are listed elsewhere or left out.

Protein sequences, listed by entry. Tags and fused reporters are not part of them. Lines headed by an entry give the natural chain unless they say otherwise; changes in a name come on top.
UniProt Q99986: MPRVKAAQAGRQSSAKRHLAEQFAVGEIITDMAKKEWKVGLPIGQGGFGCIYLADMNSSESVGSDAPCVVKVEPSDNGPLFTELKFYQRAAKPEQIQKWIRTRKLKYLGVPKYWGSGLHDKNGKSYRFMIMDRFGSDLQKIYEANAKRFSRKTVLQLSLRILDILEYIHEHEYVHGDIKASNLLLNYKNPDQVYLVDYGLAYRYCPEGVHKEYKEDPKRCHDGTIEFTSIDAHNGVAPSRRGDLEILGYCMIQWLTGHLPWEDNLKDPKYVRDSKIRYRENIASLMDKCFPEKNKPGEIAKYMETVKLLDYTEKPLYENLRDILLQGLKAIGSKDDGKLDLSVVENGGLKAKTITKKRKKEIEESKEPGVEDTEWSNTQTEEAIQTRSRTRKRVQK
UniProt Q4G0F5, whole entry, looked up: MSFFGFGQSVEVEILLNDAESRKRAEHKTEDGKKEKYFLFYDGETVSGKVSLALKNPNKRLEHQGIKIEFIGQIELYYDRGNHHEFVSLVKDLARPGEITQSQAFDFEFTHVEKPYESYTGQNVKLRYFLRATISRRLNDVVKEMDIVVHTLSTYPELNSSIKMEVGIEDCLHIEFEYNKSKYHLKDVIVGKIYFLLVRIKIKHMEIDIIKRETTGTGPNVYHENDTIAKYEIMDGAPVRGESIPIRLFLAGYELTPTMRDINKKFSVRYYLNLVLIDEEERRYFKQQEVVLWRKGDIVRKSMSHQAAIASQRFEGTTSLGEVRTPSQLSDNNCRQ
UniProt O75717: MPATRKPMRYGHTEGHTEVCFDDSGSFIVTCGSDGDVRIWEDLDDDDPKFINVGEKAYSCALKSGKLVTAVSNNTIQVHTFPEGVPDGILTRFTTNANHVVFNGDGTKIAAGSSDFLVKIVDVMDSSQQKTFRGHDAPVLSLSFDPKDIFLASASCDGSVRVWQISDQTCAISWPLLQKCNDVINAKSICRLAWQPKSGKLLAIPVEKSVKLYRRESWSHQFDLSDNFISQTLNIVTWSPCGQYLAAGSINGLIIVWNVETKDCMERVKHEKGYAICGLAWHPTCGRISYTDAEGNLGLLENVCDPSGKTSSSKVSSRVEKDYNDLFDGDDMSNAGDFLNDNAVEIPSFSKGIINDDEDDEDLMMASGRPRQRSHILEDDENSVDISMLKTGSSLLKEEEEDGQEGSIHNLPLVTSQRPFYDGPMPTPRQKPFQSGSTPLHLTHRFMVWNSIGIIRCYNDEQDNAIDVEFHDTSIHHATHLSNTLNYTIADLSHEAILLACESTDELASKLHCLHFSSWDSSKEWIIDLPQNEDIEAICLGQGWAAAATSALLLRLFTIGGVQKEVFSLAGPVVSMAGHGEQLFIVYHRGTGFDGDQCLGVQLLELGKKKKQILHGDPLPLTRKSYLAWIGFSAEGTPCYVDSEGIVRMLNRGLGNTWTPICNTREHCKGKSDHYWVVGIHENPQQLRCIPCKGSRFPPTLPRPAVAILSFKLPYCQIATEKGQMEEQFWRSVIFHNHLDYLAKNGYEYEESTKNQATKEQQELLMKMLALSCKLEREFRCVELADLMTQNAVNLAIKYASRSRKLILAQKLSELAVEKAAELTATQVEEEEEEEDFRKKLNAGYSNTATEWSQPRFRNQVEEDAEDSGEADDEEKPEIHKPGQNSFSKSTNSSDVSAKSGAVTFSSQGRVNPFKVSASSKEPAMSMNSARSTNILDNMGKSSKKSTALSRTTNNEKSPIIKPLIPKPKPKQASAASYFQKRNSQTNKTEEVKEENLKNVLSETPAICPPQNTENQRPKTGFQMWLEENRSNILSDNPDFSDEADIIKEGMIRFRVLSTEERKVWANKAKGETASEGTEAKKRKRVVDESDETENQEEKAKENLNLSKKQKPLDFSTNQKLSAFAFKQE
UniProt Q9Y2I8: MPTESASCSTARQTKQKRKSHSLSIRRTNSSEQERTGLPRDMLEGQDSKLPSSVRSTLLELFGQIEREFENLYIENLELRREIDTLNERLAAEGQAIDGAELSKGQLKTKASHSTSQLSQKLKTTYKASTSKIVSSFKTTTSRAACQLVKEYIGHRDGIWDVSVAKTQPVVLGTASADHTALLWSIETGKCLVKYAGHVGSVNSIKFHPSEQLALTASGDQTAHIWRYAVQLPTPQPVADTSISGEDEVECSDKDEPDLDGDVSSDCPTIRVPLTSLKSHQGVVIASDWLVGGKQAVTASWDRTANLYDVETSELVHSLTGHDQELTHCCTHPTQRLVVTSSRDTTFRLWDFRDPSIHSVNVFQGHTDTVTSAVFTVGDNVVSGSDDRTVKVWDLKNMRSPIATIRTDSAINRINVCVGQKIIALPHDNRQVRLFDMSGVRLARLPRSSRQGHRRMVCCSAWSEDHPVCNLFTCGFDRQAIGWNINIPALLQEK
UniProt Q9UID3: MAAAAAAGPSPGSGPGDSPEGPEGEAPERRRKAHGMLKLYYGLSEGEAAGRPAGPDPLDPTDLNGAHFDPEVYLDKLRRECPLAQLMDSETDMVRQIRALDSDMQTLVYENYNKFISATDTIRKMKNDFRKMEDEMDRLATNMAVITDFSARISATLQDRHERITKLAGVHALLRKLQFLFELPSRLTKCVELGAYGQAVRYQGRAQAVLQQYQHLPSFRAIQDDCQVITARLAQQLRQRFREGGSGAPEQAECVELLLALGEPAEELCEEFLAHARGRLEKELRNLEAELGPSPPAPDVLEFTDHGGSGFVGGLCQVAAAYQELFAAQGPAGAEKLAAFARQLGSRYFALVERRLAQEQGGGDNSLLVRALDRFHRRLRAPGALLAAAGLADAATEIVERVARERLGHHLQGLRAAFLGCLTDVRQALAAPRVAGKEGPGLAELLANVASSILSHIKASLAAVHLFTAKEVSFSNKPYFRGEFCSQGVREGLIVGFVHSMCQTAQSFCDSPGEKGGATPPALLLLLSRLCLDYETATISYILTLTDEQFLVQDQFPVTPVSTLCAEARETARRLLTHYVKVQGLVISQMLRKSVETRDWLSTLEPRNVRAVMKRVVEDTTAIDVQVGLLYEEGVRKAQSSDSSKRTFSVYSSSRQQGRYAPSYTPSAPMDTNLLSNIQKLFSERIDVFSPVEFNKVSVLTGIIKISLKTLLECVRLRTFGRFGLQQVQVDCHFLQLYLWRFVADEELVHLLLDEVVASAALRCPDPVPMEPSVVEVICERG
UniProt Q96MX6, whole entry, looked up: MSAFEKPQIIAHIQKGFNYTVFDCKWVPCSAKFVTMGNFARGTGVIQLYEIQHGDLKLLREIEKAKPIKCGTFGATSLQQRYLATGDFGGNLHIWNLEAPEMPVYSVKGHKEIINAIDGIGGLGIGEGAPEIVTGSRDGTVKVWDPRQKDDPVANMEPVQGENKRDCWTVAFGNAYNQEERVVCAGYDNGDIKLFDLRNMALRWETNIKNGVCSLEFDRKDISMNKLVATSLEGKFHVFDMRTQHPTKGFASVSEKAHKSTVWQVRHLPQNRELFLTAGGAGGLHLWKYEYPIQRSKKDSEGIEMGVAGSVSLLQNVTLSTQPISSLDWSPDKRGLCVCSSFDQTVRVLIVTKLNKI
UniProt Q9UGM6: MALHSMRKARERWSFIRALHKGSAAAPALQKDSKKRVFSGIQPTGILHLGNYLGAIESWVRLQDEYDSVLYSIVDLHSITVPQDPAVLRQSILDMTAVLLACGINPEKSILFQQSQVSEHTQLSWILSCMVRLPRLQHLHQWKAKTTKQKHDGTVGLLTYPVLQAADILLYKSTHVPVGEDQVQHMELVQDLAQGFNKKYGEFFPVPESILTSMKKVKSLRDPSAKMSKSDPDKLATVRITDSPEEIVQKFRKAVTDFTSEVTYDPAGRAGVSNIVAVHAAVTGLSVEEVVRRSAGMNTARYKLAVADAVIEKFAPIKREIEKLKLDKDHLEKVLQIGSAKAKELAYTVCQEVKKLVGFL
UniProt Q8NI36: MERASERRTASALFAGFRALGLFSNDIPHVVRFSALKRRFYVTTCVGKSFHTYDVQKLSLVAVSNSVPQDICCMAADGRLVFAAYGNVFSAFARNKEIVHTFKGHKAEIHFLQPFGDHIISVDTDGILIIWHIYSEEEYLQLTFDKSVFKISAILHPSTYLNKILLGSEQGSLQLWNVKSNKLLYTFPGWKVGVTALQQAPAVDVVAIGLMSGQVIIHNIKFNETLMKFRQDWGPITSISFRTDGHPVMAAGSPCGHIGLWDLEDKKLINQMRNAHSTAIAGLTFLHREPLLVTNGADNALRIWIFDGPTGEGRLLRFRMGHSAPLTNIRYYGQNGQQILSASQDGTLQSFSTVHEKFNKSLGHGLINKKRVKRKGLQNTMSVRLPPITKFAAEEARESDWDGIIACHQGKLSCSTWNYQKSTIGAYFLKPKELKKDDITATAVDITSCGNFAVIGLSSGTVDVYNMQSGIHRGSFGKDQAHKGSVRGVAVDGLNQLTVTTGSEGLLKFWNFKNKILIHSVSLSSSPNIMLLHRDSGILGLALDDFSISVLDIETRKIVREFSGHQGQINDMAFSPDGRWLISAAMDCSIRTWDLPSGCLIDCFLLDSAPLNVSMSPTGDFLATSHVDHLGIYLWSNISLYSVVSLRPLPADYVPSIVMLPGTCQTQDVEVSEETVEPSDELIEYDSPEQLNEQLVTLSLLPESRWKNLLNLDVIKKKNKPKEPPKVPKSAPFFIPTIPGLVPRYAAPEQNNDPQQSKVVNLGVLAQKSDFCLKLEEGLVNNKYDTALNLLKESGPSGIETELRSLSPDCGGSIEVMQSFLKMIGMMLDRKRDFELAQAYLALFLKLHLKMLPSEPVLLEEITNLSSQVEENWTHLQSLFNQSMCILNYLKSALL
UniProt P57081: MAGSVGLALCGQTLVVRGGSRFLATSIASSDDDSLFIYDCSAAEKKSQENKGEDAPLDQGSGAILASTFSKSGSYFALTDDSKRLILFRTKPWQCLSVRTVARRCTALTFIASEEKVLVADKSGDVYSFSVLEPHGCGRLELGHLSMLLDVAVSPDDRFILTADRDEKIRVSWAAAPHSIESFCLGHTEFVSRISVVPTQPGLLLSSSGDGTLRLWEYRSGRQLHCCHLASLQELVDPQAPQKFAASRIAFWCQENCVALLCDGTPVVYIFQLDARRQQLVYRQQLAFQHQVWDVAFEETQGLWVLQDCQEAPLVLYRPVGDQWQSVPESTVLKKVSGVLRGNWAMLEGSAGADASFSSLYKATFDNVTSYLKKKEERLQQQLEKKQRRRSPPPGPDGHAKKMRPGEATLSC
UniProt Q9BTA9: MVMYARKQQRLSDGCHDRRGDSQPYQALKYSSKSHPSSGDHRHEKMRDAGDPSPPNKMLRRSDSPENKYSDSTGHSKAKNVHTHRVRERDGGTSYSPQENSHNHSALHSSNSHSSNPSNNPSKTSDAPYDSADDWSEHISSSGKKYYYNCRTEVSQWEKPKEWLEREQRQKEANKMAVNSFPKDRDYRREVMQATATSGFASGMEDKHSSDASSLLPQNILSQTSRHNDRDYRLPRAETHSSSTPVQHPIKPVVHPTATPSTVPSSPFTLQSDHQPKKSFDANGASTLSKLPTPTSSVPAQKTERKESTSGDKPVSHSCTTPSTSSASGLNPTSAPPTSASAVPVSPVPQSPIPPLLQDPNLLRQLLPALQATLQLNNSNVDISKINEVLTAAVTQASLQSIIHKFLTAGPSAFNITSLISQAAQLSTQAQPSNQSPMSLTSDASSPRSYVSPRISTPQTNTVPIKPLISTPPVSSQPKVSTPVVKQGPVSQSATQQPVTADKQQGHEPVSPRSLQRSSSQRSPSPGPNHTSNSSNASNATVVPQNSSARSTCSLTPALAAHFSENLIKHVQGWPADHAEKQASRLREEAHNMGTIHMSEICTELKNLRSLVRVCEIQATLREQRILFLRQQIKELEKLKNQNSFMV
UniProt A4D1P6: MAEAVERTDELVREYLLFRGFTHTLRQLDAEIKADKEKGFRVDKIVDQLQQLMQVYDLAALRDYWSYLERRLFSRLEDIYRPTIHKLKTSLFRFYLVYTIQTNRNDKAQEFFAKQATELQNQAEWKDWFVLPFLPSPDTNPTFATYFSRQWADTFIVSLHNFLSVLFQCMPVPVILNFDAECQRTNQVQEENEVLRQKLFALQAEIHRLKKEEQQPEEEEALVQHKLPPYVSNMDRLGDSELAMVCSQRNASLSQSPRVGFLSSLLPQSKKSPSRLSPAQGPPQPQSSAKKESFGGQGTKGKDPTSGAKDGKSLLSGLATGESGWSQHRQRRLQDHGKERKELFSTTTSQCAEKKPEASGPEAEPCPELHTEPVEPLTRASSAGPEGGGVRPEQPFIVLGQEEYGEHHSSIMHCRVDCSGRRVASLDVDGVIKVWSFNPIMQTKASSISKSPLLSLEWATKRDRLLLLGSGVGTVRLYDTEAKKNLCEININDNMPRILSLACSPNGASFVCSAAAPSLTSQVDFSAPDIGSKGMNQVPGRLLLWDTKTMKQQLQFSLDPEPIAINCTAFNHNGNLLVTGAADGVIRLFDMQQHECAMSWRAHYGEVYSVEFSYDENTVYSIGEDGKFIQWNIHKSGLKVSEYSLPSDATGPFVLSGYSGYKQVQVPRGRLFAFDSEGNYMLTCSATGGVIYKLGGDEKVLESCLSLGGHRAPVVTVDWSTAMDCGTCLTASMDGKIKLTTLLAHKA

Experiments:
Experiment in all cases: log2 fold change, soluble protein after heating vs DMSO (PISA); higher = thermal stabilisation; K562 lysate, 10 uM; active = over 0.2 and 3.5 SD of the protein, either way, in both replicates (recomputed)
[1] = compound: CS(=O)(=O)CCNCc1ccc(-c2ccc3ncnc(Nc4ccc(OCc5cccc(F)c5)c(Cl)c4)c3c2)o1 [lapatinib]
Procedure, shortened: (§1)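 Following dounce homogenisation of K562 pellets in PBS pH 7.4 with 1 mM MgCl2, crude extract at 1 mg/mL protein was incubated for 30 min with 10 μM compound. Aliquots were then heated for 3 min over 48°C-58°C and pooled, NP-40 was added to 0.5% at 4°C, and soluble protein was recovered as the supernatant at 21,000xg for 90 min. Channel-sum-equalised TMTpro 16plex LC-MS/MS quantified this protein. Each value, from duplicates, is a log-two fold change in thermal stability relative to solvent controls.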

[2] = compound: CS(=O)(=O)N1CCN(Cc2cc3nc(-c4cccc5[nH]ncc45)nc(N4CCOCC4)c3s2)CC1 [pictilisib]
Procedure, shortened: as §1

[3] = compound: C[C@@H](Oc1cc(-c2cnn(C3CCNCC3)c2)cnc1N)c1c(Cl)ccc(F)c1Cl [crizotinib]
Procedure, shortened: as §1

[4] = compound: C[C@H](C1=CC=C(C=C1)C(=O)NC2=C3C=CNC3=NC=C2)N
Procedure, shortened: as §1

[5] = compound: C[C@H](Nc1ncnc2nc[nH]c12)c1cc2cccc(Cl)c2c(=O)n1-c1ccccc1 [duvelisib]
Procedure, shortened: as §1

[6] = compound: Cc1cc(Nc2cc(CN3CCOCC3)c3nc(C)c(Cc4ccc(Cl)cc4F)n3n2)n[nH]1 [gandotinib]
Procedure, shortened: as §1

[7] = compound: Cc1cc(Nc2cc(N3CCN(C)CC3)nc(Sc3ccc(NC(=O)C4CC4)cc3)n2)n[nH]1 [tozasertib]
Procedure, shortened: as §1

[8] = compound: Cc1ccc(-n2nc(C(C)(C)C)cc2NC(=O)Nc2ccc(OCCN3CCOCC3)c3ccccc23)cc1 [doramapimod]
Procedure, shortened: as §1

[9] = compound: Cc1ccc(NC(=O)c2ccc(CN3CC[C@H](N(C)C)C3)c(C(F)(F)F)c2)cc1Nc1nccc(-c2cncnc2)n1 [bafetinib]
Procedure, shortened: as §1

[10] = compound: Cc1cccc(CC(=O)N2CCc3c2ccc(-c2cn(C)c4ncnc(N)c24)c3F)n1
Procedure, shortened: as §1

[11] = compound: Cc1cn(-c2cc(NC(=O)c3ccc(C)c(Nc4nccc(-c5cccnc5)n4)c3)cc(C(F)(F)F)c2)cn1 [nilotinib]
Procedure, shortened: as §1

[12] = compound: Cc1nc(Nc2n[nH]c3c2CN(C(=O)N[C@H](CN(C)C)c2ccccc2)C3(C)C)c2sccc2n1
Procedure, shortened: as §1

[13] = compound: Cc1nc(Nc2ncc(C(=O)Nc3c(C)cccc3Cl)s2)cc(N2CCN(CCO)CC2)n1 [dasatinib]
Procedure, shortened: as §1

[14] = compound: Cc1ncc(-c2ccnc(Nc3ccc(S(C)(=O)=O)cc3)n2)n1C(C)C
Procedure, shortened: as §1

[15] = compound: Cn1cc(-c2ccc3c(c2)CCN3C(=O)Cc2cccc(C(F)(F)F)c2)c2c(N)ncnc21
Procedure, shortened: as §1

[16] = compound: Cn1cc(CNCC2CCN(c3ncc(C(=O)NO)cn3)CC2)c2ccccc21 [quisinostat]
Procedure, shortened: as §1

[17] = compound: Cn1cncc1[C@@](N)(c1ccc(Cl)cc1)c1ccc2c(c1)c(-c1cccc(Cl)c1)cc(=O)n2C [tipifarnib]
Procedure, shortened: as §1

[18] = compound: NC(=O)Nc1cc(-c2cccc(F)c2)sc1C(=O)N[C@H]1CCCNC1
Procedure, shortened: as §1

[19] = compound: NC(=O)c1cnc(N[C@@H]2CCCC[C@@H]2N)nc1Nc1cccc(-n2nccn2)c1
Procedure, shortened: as §1

[20] = compound: NC1(c2ccc(-c3nc4ccn5c(=O)[nH]nc5c4cc3-c3ccccc3)cc2)CCC1
Procedure, shortened: as §1

Target	log2 fold change [1]	log2 fold change [2]	log2 fold change [3]	log2 fold change [4]	log2 fold change [5]	log2 fold change [6]	log2 fold change [7]	log2 fold change [8]	log2 fold change [9]	log2 fold change [10]	log2 fold change [11]	log2 fold change [12]	log2 fold change [13]	log2 fold change [14]	log2 fold change [15]	log2 fold change [16]	log2 fold change [17]	log2 fold change [18]	log2 fold change [19]	log2 fold change [20]
VRK1 (UniProt Q99986)	inactive: -0.005	inactive: 0.002	inactive: -0.023	inactive: 0.172	inactive: 0.013	inactive: -0.078	inactive: -0.052	inactive: -0.052	inactive: -0.042	inactive: -0.014	inactive: -0.002	inactive: 0	inactive: -0.001	inactive: 0.005	inactive: 0.032	inactive: -0.059	inactive: -0.018	inactive: 0.015	inactive: 0.003	inactive: -0.046
VPS26B (UniProt Q4G0F5)	inactive: -0.008	inactive: -0.04	inactive: -0.026	inactive: -0.128	inactive: 0.03	inactive: 0.041	inactive: 0.027	inactive: 0.044	inactive: -0.013	inactive: 0.055	inactive: 0.042	inactive: -0.015	inactive: 0.017	inactive: -0.011	inactive: -0.039	inactive: -0.04	inactive: 0.077	inactive: 0.002	inactive: -0.01	inactive: 0
WDHD1 (UniProt O75717)	inactive: -0.017	inactive: -0.025	inactive: -0.035	inactive: 0.077	inactive: 0.007	inactive: -0.082	inactive: -0.043	inactive: 0.011	inactive: 0.023	inactive: -0.037	inactive: -0.008	inactive: 0.026	inactive: -0.023	inactive: 0.012	inactive: 0.01	inactive: -0.029	inactive: -0.01	inactive: 0.008	inactive: 0.013	inactive: 0.01
WDR37 isoform 2 (UniProt Q9Y2I8)	inactive: -0.001	inactive: -0.014	inactive: -0.002	inactive: 0.088	inactive: 0.02	inactive: -0.091	inactive: 0.005	inactive: 0.025	inactive: -0.062	inactive: 0.019	inactive: -0.033	inactive: 0.038	inactive: 0.011	inactive: -0.022	inactive: 0.026	inactive: -0.041	inactive: -0.093	inactive: 0.033	inactive: -0.076	inactive: -0.003
VPS51 (UniProt Q9UID3)	inactive: -0.034	inactive: -0.043	inactive: 0.019	inactive: 0.118	inactive: 0.016	inactive: -0.11	inactive: -0.009	inactive: -0.065	inactive: -0.095	inactive: -0.022	inactive: -0.018	inactive: -0.008	inactive: -0.032	inactive: 0.005	inactive: 0.01	inactive: 0.038	inactive: -0.015	inactive: 0.036	inactive: 0.035	inactive: -0.017
WDR61 (UniProt Q9GZS3)	inactive: -0.01	inactive: -0.002	inactive: -0.041	inactive: 0.019	inactive: 0.048	inactive: 0.004	inactive: 0.001	inactive: 0.02	inactive: 0.054	inactive: -0.028	inactive: -0.019	inactive: -0.031	inactive: -0.071	inactive: -0.069	inactive: 0.004	inactive: -0.011	inactive: 0.026	inactive: -0.016	inactive: -0.008	inactive: -0.053
WDR92 (UniProt Q96MX6)	inactive: 0.011	inactive: -0.01	inactive: 0	inactive: 0.046	inactive: 0.02	inactive: -0.019	inactive: -0.007	inactive: 0.011	inactive: -0.028	inactive: -0.012	inactive: 0	inactive: -0.009	inactive: 0.007	inactive: -0.07	inactive: -0.056	inactive: -0.015	inactive: -0.008	inactive: 0.032	inactive: -0.042	inactive: -0.01
WARS2 (UniProt Q9UGM6)	inactive: 0.026	inactive: 0.054	inactive: -0.004	inactive: 0.012	inactive: -0.022	inactive: 0.052	inactive: -0.012	inactive: -0.038	inactive: -0.133	inactive: 0.016	inactive: 0.008	inactive: 0.032	inactive: -0.029	inactive: -0.016	inactive: 0.05	inactive: -0.012	inactive: -0.008	inactive: 0.037	inactive: -0.013	inactive: -0.004
WDR36 (UniProt Q8NI36)	inactive: 0.013	inactive: -0.008	inactive: -0.02	inactive: 0.024	inactive: 0.016	inactive: -0.097	inactive: 0.017	inactive: 0.061	inactive: 0.005	inactive: -0.004	inactive: 0.003	inactive: -0.015	inactive: 0.012	inactive: 0.002	inactive: 0.025	inactive: -0.014	inactive: -0.002	inactive: 0.03	inactive: -0.004	inactive: -0.01
WRB (UniProt O00258)	inactive: -0.067	inactive: -0.118	inactive: 0.034	inactive: -0.138	inactive: 0.006	active: 0.348	inactive: -0.033	inactive: -0.074	inactive: -0.017	inactive: 0.339	inactive: 0.06	inactive: -0.017	inactive: -0.014	inactive: 0.183	inactive: 0.082	inactive: 0.015	inactive: -0.044	inactive: -0.005	inactive: 0.071	inactive: 0.024
WDR4 (UniProt P57081)	inactive: -0.014	inactive: -0.022	inactive: -0.048	inactive: 0.017	inactive: 0.032	inactive: -0.049	inactive: -0.016	inactive: 0.055	inactive: -0.008	inactive: -0.036	inactive: 0	inactive: -0.008	inactive: -0.002	inactive: 0	inactive: 0.012	inactive: -0.084	inactive: 0.02	inactive: 0.018	inactive: -0.051	inactive: 0.011
WDR12 (UniProt Q9GZL7)	inactive: -0.01	inactive: -0.004	inactive: 0.028	inactive: -0.044	inactive: -0.006	inactive: 0.041	inactive: -0.015	inactive: 0.031	inactive: -0.02	inactive: 0.009	inactive: 0.005	inactive: 0.014	inactive: -0.002	inactive: -0.015	inactive: -0.008	inactive: -0.006	inactive: 0.031	inactive: 0.013	inactive: -0.005	inactive: 0.005
WAC (UniProt Q9BTA9)	inactive: 0.005	inactive: -0.04	inactive: 0.018	inactive: 0	inactive: -0.005	inactive: -0.014	inactive: 0.004	inactive: -0.031	inactive: -0.057	inactive: 0.043	inactive: -0.012	inactive: -0.001	inactive: -0.038	inactive: -0.019	inactive: 0.002	inactive: -0.029	inactive: 0	inactive: 0.019	inactive: -0.01	inactive: 0.004
WDR91 (UniProt A4D1P6)	inactive: -0.003	inactive: -0.012	inactive: -0.009	inactive: -0.001	inactive: 0.002	inactive: 0.048	inactive: 0	inactive: 0.038	inactive: -0.05	inactive: 0.052	inactive: -0.051	inactive: -0.025	inactive: -0.039	inactive: -0.01	inactive: 0.056	inactive: 0.005	inactive: 0.014	inactive: -0.009	inactive: -0.004	inactive: 0.011
VPS8 (UniProt Q8N3P4)	inactive: -0.044	inactive: -0.023	inactive: -0.007	inactive: -0.064	inactive: 0.01	inactive: -0.073	inactive: 0.053	inactive: 0.002	inactive: -0.055	inactive: 0.076	inactive: 0.024	inactive: -0.019	inactive: -0.036	inactive: 0.026	inactive: 0.073	inactive: -0.03	inactive: 0.006	inactive: 0.065	inactive: 0.027	inactive: -0.062
VPS29 isoform 2 (UniProt Q9UBQ0)	inactive: 0.015	inactive: -0.06	inactive: 0.001	inactive: -0.007	inactive: -0.041	inactive: -0.025	inactive: -0.029	inactive: 0.005	inactive: 0.051	inactive: -0.011	inactive: 0.008	inactive: -0.031	inactive: 0.015	inactive: -0.019	inactive: -0.028	inactive: 0.047	inactive: 0.024	inactive: -0.044	inactive: 0.006	inactive: -0.017

Fetched one by one from above:
Target	log2 fold change [1]	log2 fold change [2]	log2 fold change [3]	log2 fold change [4]	log2 fold change [5]	log2 fold change [6]	log2 fold change [7]	log2 fold change [8]	log2 fold change [9]	log2 fold change [10]	log2 fold change [11]	log2 fold change [12]	log2 fold change [13]	log2 fold change [14]	log2 fold change [15]	log2 fold change [16]	log2 fold change [17]	log2 fold change [18]	log2 fold change [19]	log2 fold change [20]
VPS8 (UniProt Q8N3P4)	inactive: -0.044	inactive: -0.023	inactive: -0.007	inactive: -0.064	inactive: 0.01	inactive: -0.073	inactive: 0.053	inactive: 0.002	inactive: -0.055	inactive: 0.076	inactive: 0.024	inactive: -0.019	inactive: -0.036	inactive: 0.026	inactive: 0.073	inactive: -0.03	inactive: 0.006	inactive: 0.065	inactive: 0.027	inactive: -0.062
WDR91 (UniProt A4D1P6)	inactive: -0.003	inactive: -0.012	inactive: -0.009	inactive: -0.001	inactive: 0.002	inactive: 0.048	inactive: 0	inactive: 0.038	inactive: -0.05	inactive: 0.052	inactive: -0.051	inactive: -0.025	inactive: -0.039	inactive: -0.01	inactive: 0.056	inactive: 0.005	inactive: 0.014	inactive: -0.009	inactive: -0.004	inactive: 0.011
